This is an account of results in article PMC11628678.

No constants are given. Whether binding was seen depends on the method and setting. In cells and extracts the contact can be indirect. Some entries that bind do so weakly or less than the wild type.

The target in this assay is Yes1-associated transcriptional regulator (YAP1) (human (endogenous in the human SSC line)) (UniProt P46937). As to the kind of experiment: co-IP; endogenous proteins; human SSC line lysed in the binding/washing buffer of the Pierce IP/Co-IP kit; 10 ug anti-YAP1 or anti-RAD21 antibody overnight at 4 °C, protein A/G magnetic beads 2 h at room temperature; Western blot.

B1: RAD21 (RAD21 cohesin complex component) (protein, UniProt O60216 1-631)
chain: MFYAHFVLSKRGPLAKIWLAAHWDKKLTKAHVFECNLESSVESIISPKVKMALRTSGHLLLGVVRIYHRKAKYLLADCNEAFIKIKMAFRPGVVDLPEENREAAYNAITLPEEFHDFDQPLPDLDDIDVAQQFSLNQSRVEEITMREEVGNISILQENDFGDFGMDDREIMREGSAFEDDDMLVSTTTSNLLLESEQSTSNLNEKINHLEYEDQYKDDNFGEGNDGGILDDKLISNNDGGIFDDPPALSEAGVMLPEQPAHDDMDEDDNVSMGGPDSPDSVDPVEPMPTMTDQTTLVPNEEEAFALEPIDITVKETKAKRKRKLIVDSVKELDSKTIRAQLSDYSDIVTTLDLAPPTKKLMMWKETGGVEKLFSLPAQPLWNNRLLKLFTRCLTPLVPEDLRKRRKGGEADNLDEFLKEFENPEVPREDQQQQHQQRDVIDEPIIEEPSRLQESVMEASRTNIDESAMPPPPPQGVKRKAGQIDPEPVMPPQQVEQMEIPPVELPPEEPPNICQLIPELELLPEKEKEKEKEKEDDEEEEDEDASGGDQDQEERRWNKRTQQMLHGLQRALAKTGAESISLLELCRNTNRKQAAAKFYSFLVLKKQQAIELTQEEPYSDIIATPGPRFHII
For B1, the binding entry is reported as “binds”.
